# Reference: the supplement of paper PMC11438910
# This is one part of the list. Most of these values are background signal.
# B1: 4-99.4 (protein)
# chain 1: QVQLQESGPGLVKPSETLSLTCAVSGYSISSAYFWGWIRQPPGKGLEYIGYISGEGGKSYYNPSLMSRVTISKDTSKNQFSLKLNTVTAADTAVYYCARRAILVGFDLWGQGVLVTVSS
# chain 2: QAAPTQPPSVSGSPGQSVTISCTGSNSDIGYYNAVSWYQQHPGKAPKLMIYEVSKRPSGVSDRLTGSKSGNTASLTISGLQAEDEADYYCSSYAGSNTYIFGTGTRLTVL
# Columns and labels:
# Assay in all cases: fluorescence intensity of antibody binding to polysaccharide-coupled beads; higher = stronger binding
# [1] = target: pneumococcal polysaccharide Pn44
# Protocol: (§1)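 Recombinant rhesus-murine chimeric IgG1 antibodies were tested against antigen-coupled MagPlex beads in a 96-plex Luminex direct immunoassay (dLIA). The beads carried pneumococcal capsular polysaccharides of 93 serotypes plus C-polysaccharides. Antibody was added at 0.1–12,500 ng/mL for 1 h, then PE anti-mouse IgG, and net MFI was read on a Bio-Plex 3D. Only the rhesus variable regions are printed; constant regions are murine IgG1/kappa/lambda, and the signal peptide is MGWSCIILFLVATATGVHS.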
# [2] = target: pneumococcal polysaccharide Pn45
# Protocol: as §1
# [3] = target: pneumococcal polysaccharide Pn46
# Protocol: as §1
# [4] = target: pneumococcal polysaccharide Pn47A
# Protocol: as §1
# [5] = target: pneumococcal polysaccharide Pn47F
# Protocol: as §1
# [6] = target: pneumococcal polysaccharide Pn48
# Protocol: as §1
# [7] = target: pneumococcal polysaccharide Pn5
# Protocol: as §1
# [8] = target: pneumococcal polysaccharide Pn6A
# Protocol: as §1
# [9] = target: pneumococcal polysaccharide Pn6B
# Protocol: as §1
# [10] = target: pneumococcal polysaccharide Pn6C
# Protocol: as §1
# [11] = target: pneumococcal polysaccharide Pn6D
# Protocol: as §1
# [12] = target: pneumococcal polysaccharide Pn7A
# Protocol: as §1
# [13] = antibody concentration 0.1 ng/mL
# [14] = antibody concentration 0.534724 ng/mL
# [15] = antibody concentration 2.8593 ng/mL
# [16] = antibody concentration 15.2894 ng/mL
# [17] = antibody concentration 81.7561 ng/mL
# [18] = antibody concentration 437.17 ng/mL
# [19] = antibody concentration 2337.65 ng/mL
# [20] = antibody concentration 12500 ng/mL
binder,measurement,setting,value
B1,fluorescence intensity,[1]; [13],25 MFI
same,fluorescence intensity,[1]; [14],26.5 MFI
same,fluorescence intensity,[1]; [15],26 MFI
same,fluorescence intensity,[1]; [16],25 MFI
same,fluorescence intensity,[1]; [17],26 MFI
same,fluorescence intensity,[1]; [18],25.5 MFI
same,fluorescence intensity,[1]; [19],26.5 MFI
same,fluorescence intensity,[1]; [20],35 MFI
same,fluorescence intensity,[2]; [13],12.5 MFI
same,fluorescence intensity,[2]; [14],11 MFI
same,fluorescence intensity,[2]; [15],12 MFI
same,fluorescence intensity,[2]; [16],11 MFI
same,fluorescence intensity,[2]; [17],11.5 MFI
same,fluorescence intensity,[2]; [18],12.2 MFI
same,fluorescence intensity,[2]; [19],13 MFI
same,fluorescence intensity,[2]; [20],19 MFI
same,fluorescence intensity,[3]; [13],23.5 MFI
same,fluorescence intensity,[3]; [14],24.5 MFI
same,fluorescence intensity,[3]; [15],25.5 MFI
same,fluorescence intensity,[3]; [16],24.5 MFI
same,fluorescence intensity,[3]; [17],24.5 MFI
same,fluorescence intensity,[3]; [18],24.2 MFI
same,fluorescence intensity,[3]; [19],27 MFI
same,fluorescence intensity,[3]; [20],57.5 MFI
same,fluorescence intensity,[4]; [13],16 MFI
same,fluorescence intensity,[4]; [14],17 MFI
same,fluorescence intensity,[4]; [15],16.5 MFI
same,fluorescence intensity,[4]; [16],17 MFI
same,fluorescence intensity,[4]; [17],15.8 MFI
same,fluorescence intensity,[4]; [18],15.5 MFI
same,fluorescence intensity,[4]; [19],17 MFI
same,fluorescence intensity,[4]; [20],24 MFI
same,fluorescence intensity,[5]; [13],12 MFI
same,fluorescence intensity,[5]; [14],12 MFI
same,fluorescence intensity,[5]; [15],12.5 MFI
same,fluorescence intensity,[5]; [16],13.5 MFI
same,fluorescence intensity,[5]; [17],11.5 MFI
same,fluorescence intensity,[5]; [18],12.2 MFI
same,fluorescence intensity,[5]; [19],14 MFI
same,fluorescence intensity,[5]; [20],42.8 MFI
same,fluorescence intensity,[6]; [13],20.5 MFI
same,fluorescence intensity,[6]; [14],23 MFI
same,fluorescence intensity,[6]; [15],24.5 MFI
same,fluorescence intensity,[6]; [16],23 MFI
same,fluorescence intensity,[6]; [17],24 MFI
same,fluorescence intensity,[6]; [18],26 MFI
same,fluorescence intensity,[6]; [19],25.8 MFI
same,fluorescence intensity,[6]; [20],56.5 MFI
same,fluorescence intensity,[7]; [13],8.5 MFI
same,fluorescence intensity,[7]; [14],8 MFI
same,fluorescence intensity,[7]; [15],9 MFI
same,fluorescence intensity,[7]; [16],8 MFI
same,fluorescence intensity,[7]; [17],9 MFI
same,fluorescence intensity,[7]; [18],9.5 MFI
same,fluorescence intensity,[7]; [19],12.5 MFI
same,fluorescence intensity,[7]; [20],48 MFI
same,fluorescence intensity,[8]; [13],21.5 MFI
same,fluorescence intensity,[8]; [14],22.5 MFI
same,fluorescence intensity,[8]; [15],22.5 MFI
same,fluorescence intensity,[8]; [16],22.5 MFI
same,fluorescence intensity,[8]; [17],21.8 MFI
same,fluorescence intensity,[8]; [18],23.2 MFI
same,fluorescence intensity,[8]; [19],27 MFI
same,fluorescence intensity,[8]; [20],40.8 MFI
same,fluorescence intensity,[9]; [13],21 MFI
same,fluorescence intensity,[9]; [14],20 MFI
same,fluorescence intensity,[9]; [15],21.5 MFI
same,fluorescence intensity,[9]; [16],20 MFI
same,fluorescence intensity,[9]; [17],21.2 MFI
same,fluorescence intensity,[9]; [18],21.5 MFI
same,fluorescence intensity,[9]; [19],25 MFI
same,fluorescence intensity,[9]; [20],36.5 MFI
same,fluorescence intensity,[10]; [13],21 MFI
same,fluorescence intensity,[10]; [14],46 MFI
same,fluorescence intensity,[10]; [15],56 MFI
same,fluorescence intensity,[10]; [16],70.8 MFI
same,fluorescence intensity,[10]; [17],67.2 MFI
same,fluorescence intensity,[10]; [18],64 MFI
same,fluorescence intensity,[10]; [19],108 MFI
same,fluorescence intensity,[10]; [20],97.2 MFI
same,fluorescence intensity,[11]; [13],19.5 MFI
same,fluorescence intensity,[11]; [14],17.5 MFI
same,fluorescence intensity,[11]; [15],16.5 MFI
same,fluorescence intensity,[11]; [16],19 MFI
same,fluorescence intensity,[11]; [17],15.5 MFI
same,fluorescence intensity,[11]; [18],17.5 MFI
same,fluorescence intensity,[11]; [19],20.2 MFI
same,fluorescence intensity,[11]; [20],25 MFI
same,fluorescence intensity,[12]; [13],21.5 MFI
same,fluorescence intensity,[12]; [14],20 MFI

# In another format: entries from further up
binder	measurement	setting	value
B1	fluorescence intensity	[7]; [13]	8.5 MFI
same	fluorescence intensity	[7]; [14]	8 MFI
same	fluorescence intensity	[7]; [15]	9 MFI
same	fluorescence intensity	[7]; [16]	8 MFI
